Measurements published in patent US20250002581A1.
Results are given in words; binding and its absence hold for the method and conditions named. Binding calls can cover weak binding; strength is not graded here. Blank lines part the entries; values can stand above or below the binder they belong to.

Tests used:
Δ42PD1 (human) [1] = test: flow cytometry on 293T-Δ42PD1 cells
Δ42PD1 (human) [2] = test: flow cytometry on transfected 293T cells
Δ42PD-1-GFP [3] = test: flow cytometry on RPMI8866 B cells transfected with Δ42PD-1-GFP
Δ42PD1 (human) [4] = test: flow cytometry on 293T cells transfected with a PCDH plasmid expressing Δ42PD-1
Δ42PD-1-GFP [5] = test: flow cytometry on transfected RPMI8866 B cells

binding (Δ42PD1 (human) [1]): binds
B1: CH101-huIgG1(L/S) (antibody, not shown: a dimerising Fc or GST)
heavy: EVQLEESGPDLVKPSQSLSLTCTVTGYSITSGFAWHWLRQFPGNRLEWMGYIHYSGSTNYNPSLKSRISITRDTSKNQFFLQLNSVTTEDTATFYCARSDFWGQGTFVTVSS
light: DVVMTQTPLNLSVTFGQPVSISCTSSQSLLDRDGETFMNWLFQRPGQSPKRLIYLVSKLDFGVPDRFTGSGSGTDFTLKISRVEAEDLGIYYCWQGTHFPLTFGGGTKLEIKRTVAAPSVFIFPPSDEQLKSGTASVVCLLNNFYPREAKVQWKVDNALQSGNSQESVTEQDSKDSTYSLSSTLTLSKADYEKHKVYACEVTHQGLSSPVTKSFNRGEC

binding (Δ42PD1 (human) [1]): binds
B2: murine CH101 (antibody, V domains shown)
VH: B1 heavy
VL: DVVMTQTPLNLSVTFGQPVSISCTSSQSLLDRDGETFMNWLFQRPGQSPKRLIYLVSKLDFGVPDRFTGSGSGTDFTLKISRVEAEDLGIYYCWQGTHFPLTFGGGTKLEIK

binding (Δ42PD1 (human) [2]): binds | binding (Δ42PD-1-GFP [3]): binds | binding (Δ42PD1 (human) [4]): binds | binding (Δ42PD-1-GFP [5]): binds
B3: anti-Δ42PD1 antibody CH34 (antibody, mouse IgG2b, kappa, V domains shown)
VH: EVKLVESGGGLVQPGGSRKLSCAASGFTFSDYGMAWVRQAPGKGPEWVAFISSLAYTIYYADTVTGRFTISRENAKNTLYLEMSSLRSEDTAMYYCARGGAGFAYWGQGTLVTVSA
VL: DIQMTQSSSYLSVSLGGRVTITCKASDHINNWLAWYQQKPGNAPRLLISGATSLETGVPSRFSGSGSGKDYTLSITSLQTEDVATYYCQQYWSTPWTFGGGTKLEIKR
